PubChem BioAssay AID504791, Drosophila RNAi Screening Center, 2011
The screen tested about 23,000 reagents; below is an unselected part of those that have a named target and a result. Over the whole deposit, 199 (0.86%) are marked active. 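Plate-scaled ratios behind the calls are not deposited; printed light signals are raw; many rows marked increased or decreased are still called inactive.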 Entries without a mark were called inactive. The numbers tell different reagents against one gene apart. Names joined by + are all predicted targets of the reagent. Reagent sequences are not shown.

- Test: 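Genes of the fly required for silencing by miRNA, siRNA or endo-siRNA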 (primary screen)
- Cell system: Drosophila S2-derived reporter cells
- Reagents: long dsRNA against Drosophila genes, about 150-250 ng dsRNA per well (siRNA assay); about 80-120 ng (miRNA assay)
- Duration: about 5 days (siRNA assay); about 4 days (miRNA assay)
- Challenge: copper sulfate induction of reporters: 25 µM (siRNA assay); 200 mM stated (miRNA assay), 1-2 days before reading
- Measurement: 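Per-well ratio of Renilla over firefly light, expressed relative to that plate's average ratio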
- Scale: siRNA reporter hit score: higher = 3 marks a strong hit with raised ratio; -3 a strong hit with lowered ratio
- Hit rule: 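a well was a first-pass pick when its plate-scaled ratio rose above 1.5 (siRNA assay) or 1.6 (miRNA assay), or dropped below 0.6; a gene counted only if two separate dsRNAs agreed on retest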

target gene,reagent,siRNA reporter hit score,stable siRNA reporter change,miRNA reporter change,"stable assay Renilla, run 1 (luminescence)","stable assay firefly, run 1 (luminescence)"
CG10912,1,,,,9270,3.90e5
JYalpha,1,,,,6710,4.23e5
CG12490,1,,,,6214,3.62e5
CG7950 + Rpp14a,1,,,reporter ratio lowered past the hit cutoff,7726,4.70e5
CG2694,1,,,,6631,3.62e5
Ucp4B (Uncoupling protein 4B),1,,,,7330,3.76e5
ccb (central complex broad),1,,,,6771,3.86e5
salr (spalt-related),1,,,,6751,3.44e5
Sse (Separase),1,,,,8668,5.69e5
Ir7d (Ionotropic receptor 7d),1,,,,6767,4.32e5
Rok (Rho kinase),1,,,,7599,5.38e5
Rok (Rho kinase),2,,,,4060,3.79e5
H (Hairless),1,,,,8402,3.55e5
CG1986,1,,,,4623,3.02e5
CG5543,1,,,,8859,1.46e6
Cpsf73 (Cleavage and polyadenylation specificity factor 73),1,,,,5983,3.37e5
Cpsf73 (Cleavage and polyadenylation specificity factor 73),2,,,reporter ratio lowered past the hit cutoff,,
CatB (Catalase B),1,,,,6806,8.56e5
CG5921,1,,,,5344,3.98e5
CG5921,2,,,,5804,3.16e5
CG15142,1,,,,7002,3.41e5
CG11961,1,3,,,8179,3.37e5
CG14744,1,,,,6451,3.42e5
CG10175,1,,,,6743,4.14e5
CG10175,2,,,,6940,3.23e5
CG10175,3,,,,10153,8.00e5
CG5790,1,,,,5255,1.11e6
Aplip1 (APPL-interacting protein 1),1,,,,5672,5.70e5
Aplip1 (APPL-interacting protein 1),2,,,,5995,3.19e5
Aplip1 (APPL-interacting protein 1),3,,,,8959,5.92e5
CG11474,1,,,,10619,4.90e5
scrt (scratch),1,,,,5487,2.17e5
scrt (scratch),2,,,,2655,2.68e5
lncRNA:CR32660 (long non-coding RNA:CR32660),1,,,,5619,5.20e5
CG33292 (retired record),1,,,,4108,3.60e5
CG8916,1,,,,5903,4.02e5
CG9259,1,,,,6787,3.63e5
CG5897,1,,,,6863,4.58e5
CG10353,1,,,,4591,4.07e5
CG30159,1,,,,1.10e5,1.27e6
Tim13,1,,,,5919,3.66e5
CG34310,1,,,,5686,6.72e5
Ada2b (transcriptional Adaptor 2b),1,,,,6746,5.03e5
CG3062,1,,,,6212,3.90e5
SP1029,1,,,,6651,3.56e5
CG15483,1,,,,7670,4.08e5
Atac2 (Ada2a-containing complex component 2),1,,,,8576,1.78e6
Atg12 (Autophagy-related 12),1,,,,6586,4.13e5
CG12229,1,,,,8324,3.72e5
CG34249 (retired record),1,,,,6292,3.41e5
TwdlE (TweedleE),1,,,,6858,3.67e5
lost,1,,,,5208,3.74e5
lost,2,,,,4403,3.06e5
lost,3,,reporter ratio lowered past the hit cutoff,,9231,9.13e5
SCCRO3 (Squamous cell carcinoma-related oncogene 3),1,,,,6747,4.52e5
CG13392,1,,,,7347,3.16e5
Nepl18 (Neprilysin-like 18),1,,,,5995,3.60e5
"SPARC (Secreted protein, acidic, cysteine-rich)",1,,,,5750,4.32e5
CG13243,1,,reporter ratio raised past the hit cutoff (active),,9906,3.07e5
CG6094,1,,,,5999,5.53e5
CG6094,2,,,,3815,4.64e5
Pen (Pendulin),1,,,,8695,1.34e6
PIG-Wb (Phosphatidylinositol glycan anchor biosynthesis class W b),1,,,,6952,3.58e5
CG7059,1,,,,5806,3.22e5
CG3740,1,,,,7123,3.46e5
CG12177,1,,,,4075,4.68e5
CG12177,2,,,,8683,4.77e5
Roc2 (Regulator of cullins 2),1,,,,4844,2.51e5
REPTOR-BP (REPTOR-binding partner),1,,,,8140,5.71e5
TpnC4 (Troponin C isoform 4),1,,,,7619,5.31e5
CG4281,1,,,,9009,6.06e5
dah (discontinuous actin hexagon),1,,,,9246,6.57e5
Col4a1 (Collagen type IV alpha 1),1,,,,9589,1.77e5
TotB (Turandot B),1,,,,7110,2.76e5
Not3 (CCR4-NOT transcription complex subunit 3),1,,,,13889,2.15e6
Atg16 (Autophagy-related 16),1,,,,8967,7.45e5
Atg16 (Autophagy-related 16),2,,,,6231,3.53e5
Atg16 (Autophagy-related 16),3,,reporter ratio raised past the hit cutoff,,6742,2.53e5
aru (arouser),1,,,,7063,4.27e5
aru (arouser),2,,,,7757,5.03e5
CG13332,1,,,,6395,3.83e5
Trax (Translin associated factor X),1,,reporter ratio lowered past the hit cutoff,,7195,6.30e5
frma (fra mauro),1,,,,7926,4.36e5

Entries listed so far with an active call, once more:
target gene,reagent,siRNA reporter hit score,stable siRNA reporter change,miRNA reporter change,"stable assay Renilla, run 1 (luminescence)","stable assay firefly, run 1 (luminescence)"
CG13243,1,,reporter ratio raised past the hit cutoff (active),,9906,3.07e5
